Results from patent publication US11607384B2, “Lipid emulsified drug delivery systems for chemoprevention and treatment” (WESTERN UNIVERSITY OF HEALTH SCIENCES, priority 2017, dated 2023).

Tests used:
[1] = system: Panc-1 pancreatic cancer cells; experiment: Colorimetric MTS cytotoxicity assay in Panc-1 cells; assay type: cell-based; conditions: Homo sapiens, PANC-1, 72 h
[2] = system: MIA-PaCa-2 pancreatic cancer cells; experiment: Colorimetric MTS cytotoxicity assay in MIA-PaCa-2 cells; assay type: cell-based; conditions: Homo sapiens, MIA PaCa-2, 72 h

SMILES: Clc1ccc2c(c1)CCc1cccnc1C2=C1CCNCC1 [DES (free), Desloratadine]
- IC50 [1]: 250 µM
- IC50 [2]: 267 µM
